Measurements reported in PubChem BioAssay AID1259327 (Drosophila RNAi Screening Center, 2017).
Screen: 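Data from controls in screens of zinc and manganese toxicity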. System: Drosophila S2R+ cells. Knock-down reagent: long dsRNA against Drosophila genes. Timing: 5 days (water added on day 4, read one day later). Challenge: water added as vehicle, no metal, one day before read-out. Detection: 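Luciferase ATP signal per well, normalised to plate mean, duplicate average converted to z-score across plates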. Direction: ATP z-score: higher = more total ATP than typical wells; ATP luminescence: higher = more total ATP. Rule for the call: 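Called active when the ATP z-score exceeds 1.5 or falls below -1.5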. Calls: active = hit: ATP up or down; inactive = no clear ATP change.
Shown is an unselected part of about 3,100 reagents tested. In the full data, 378 (12%) are marked active. 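Hits include both directions; z-score sign shows ATP rise or fall; raw luminescence values are not plate-normalised.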 Names joined by + are all predicted targets of the reagent. Not stated in the record: the amount of reagent.

target | amplicon | ATP z-score, duplicate mean | ATP luminescence, replicate 1 (RLU) | ATP luminescence, replicate 2 (RLU) | Outcome
CG1698 (GeneID 36006) | DRSC06640 | 0.212 | 7.27e5 | 7.82e5 | inactive
CG1698 (GeneID 36006) | DRSC24314 | 0.25 | 9.30e5 | 7.82e5 | inactive
Atpalpha (GeneID 48971) | DRSC14119 | 0.051 | 7.26e5 | 6.97e5 | inactive
Atpalpha (GeneID 48971) | DRSC39134 | -1.61 | 4.38e5 | 4.48e5 | active
Lcch3 (GeneID 32554) | DRSC22175 | 0.0773 | 7.20e5 | 4.50e5 | inactive
CG31358 + CG42505 + CG42504 | DRSC15235 | -0.0246 | 7.38e5 | 6.69e5 | inactive
CG31358 + CG42505 + CG42504 | DRSC15308 | 0.188 | 7.35e5 | 7.56e5 | inactive
CG31358 + CG42505 + CG42504 | DRSC15309 | 0.142 | 3.39e5 | 6.91e5 | inactive
CG6763 (GeneID 42754) | DRSC16110 | -0.279 | 2.79e5 | 7.50e5 | inactive
CG6763 (GeneID 42754) | DRSC24299 | 3.05 | 1.05e6 | 1.41e6 | active
CG1636 + CG15343 | DRSC39902 | -2.45 | 3.42e5 | 4.12e5 | active
Ir60b (GeneID 7354400) | DRSC04217 | 0.197 | 7.85e5 | 7.10e5 | inactive
Eph (GeneID 43803) | DRSC17164 | -0.113 | 8.47e5 | 8.01e5 | inactive
Eph (GeneID 43803) | DRSC36767 | -0.817 | 5.52e5 | 4.68e5 | inactive
Eph (GeneID 43803) | DRSC36768 | -0.319 | 5.37e5 | 5.68e5 | inactive
brv2 (GeneID 39932) | DRSC10226 | 1.38 | 1.10e6 | 1.05e6 | inactive
brv2 (GeneID 39932) | DRSC29796 | -1.17 | 4.72e5 | 4.89e5 | inactive
CG4332 (GeneID 32267) | DRSC19890 | -0.603 | 6.19e5 | 6.67e5 | inactive
CG4332 (GeneID 32267) | DRSC39702 | 0.346 | 4.94e5 | 4.83e5 | inactive
CG33310 (GeneID 2768910) | DRSC01897 | -0.366 | 6.84e5 | 6.90e5 | inactive
CG33310 (GeneID 2768910) | DRSC24914 | 0.635 | 9.13e5 | 8.86e5 | inactive
CG1317 (GeneID 38300) | DRSC08305 | -1.17 | 5.39e5 | 6.75e5 | inactive
CG1317 (GeneID 38300) | DRSC39565 | -0.372 | 3.87e5 | 4.95e5 | inactive
CG33298 (GeneID 2768929) | DRSC02210 | -0.117 | 7.21e5 | 7.07e5 | inactive
CG33298 (GeneID 2768929) | DRSC02672 | 0.16 | 4.69e5 | 5.13e5 | inactive
klar (GeneID 38067) | DRSC22393 | -0.31 | 6.68e5 | 9.56e5 | inactive
iav (GeneID 31621) | DRSC25119 | -1.72 | 5.34e5 | 6.89e5 | active
iav (GeneID 31621) | DRSC39553 | -1.21 | 3.70e5 | 3.96e5 | inactive
Gr58c (GeneID 37501) | DRSC04136 | 0.364 | 7.44e5 | 7.85e5 | inactive
CG14440 (GeneID 31610) | DRSC23008 | -0.0717 | 5.84e5 | 5.63e5 | inactive
CG14440 (GeneID 31610) | DRSC25806 | 0.267 | 9.27e5 | 8.39e5 | inactive
Fur2 (GeneID 32604) | DRSC19817 | -0.735 | 6.56e5 | 7.11e5 | inactive
COX6AL2 (GeneID 40066) | DRSC10082 | 0.102 | 9.46e5 | 8.73e5 | inactive
COX6AL2 (GeneID 40066) | DRSC39542 | -0.309 | 4.34e5 | 4.30e5 | inactive
ppk29 (GeneID 37844) | DRSC04205 | -0.444 | 6.85e5 | 6.73e5 | inactive
ppk29 (GeneID 37844) | DRSC39599 | 1.64 | 4.87e5 | 6.70e5 | active
ine (GeneID 33659) | DRSC00822 | 0.757 | 4.82e5 | 5.86e5 | inactive
ine (GeneID 33659) | DRSC28874 | 0.153 | 8.90e5 | 7.96e5 | inactive
rg (GeneID 44531) | DRSC17726 | -0.6 | 6.64e5 | 6.24e5 | inactive
rg (GeneID 44531) | DRSC18049 | -1.26 | 6.29e5 | 7.48e5 | inactive
rg (GeneID 44531) | DRSC29144 | -0.421 | 8.54e5 | 6.98e5 | inactive
rg (GeneID 44531) | DRSC36613 | -1.67 | 4.06e5 | 4.72e5 | active
rg (GeneID 44531) | DRSC36614 | -1.97 | 4.34e5 | 3.90e5 | active
CR33013 (GeneID 14462581) | DRSC06286 | -0.602 | 5.43e5 | 5.87e5 | inactive
CR33013 (GeneID 14462581) | DRSC25681 | -1.16 | 6.98e5 | 6.70e5 | inactive
CG42514 (GeneID 8674108) | DRSC10428 | 0.232 | 7.41e5 | 7.71e5 | inactive
Sr-CIII (GeneID 44382) | DRSC22262 | -0.324 | 7.98e5 | 8.22e5 | inactive
nSyb (GeneID 38196) | DRSC08727 | -0.059 | 7.07e5 | 7.43e5 | inactive
nSyb (GeneID 38196) | DRSC27077 | -1.97 | 7.97e5 | 8.36e5 | active
Dic4 (GeneID 40039) | DRSC10317 | -0.489 | 8.33e5 | 8.30e5 | inactive
ACXC (GeneID 34689) | DRSC00846 | -0.958 | 6.49e5 | 6.00e5 | inactive
CG14605 (GeneID 40867) | DRSC12549 | 0.167 | 9.48e5 | 8.88e5 | inactive
CG14605 (GeneID 40867) | DRSC29195 | -0.0813 | 8.60e5 | 7.70e5 | inactive
Tsp42Eh (GeneID 35617) | DRSC06190 | 0.277 | 7.51e5 | 7.96e5 | inactive
Tsp42Eh (GeneID 35617) | DRSC39852 | -0.325 | 4.66e5 | 4.45e5 | inactive
CG9981 (GeneID 32609) | DRSC20225 | 1.12 | 7.18e5 | 8.35e5 | inactive
spi (GeneID 35253) | DRSC03618 | -0.0476 | 6.99e5 | 7.42e5 | inactive
spi (GeneID 35253) | DRSC29414 | -0.0999 | 8.71e5 | 7.56e5 | inactive
Irk1 (GeneID 42742) | DRSC16106 | 0.262 | 3.17e5 | 7.75e5 | inactive
Gr28a (GeneID 117348) | DRSC02290 | 0.428 | 7.92e5 | 7.51e5 | inactive
CG1161 (GeneID 40638) | DRSC24956 | -0.57 | 7.71e5 | 7.88e5 | inactive
ATP8B (GeneID 41469) | DRSC14961 | -0.486 | 2.52e5 | 7.74e5 | inactive
Or94a (GeneID 42711) | DRSC16772 | 0.202 | 3.11e5 | 7.76e5 | inactive
CG13887 (GeneID 38096) | DRSC08357 | -0.573 | 6.79e5 | 6.60e5 | inactive
Osi4 (GeneID 40758) | DRSC12134 | 0.506 | 1.02e6 | 9.03e5 | inactive
Osi4 (GeneID 40758) | DRSC39716 | -0.788 | 3.89e5 | 4.35e5 | inactive
CG9706 (GeneID 39876) | DRSC11095 | 0.211 | 7.48e5 | 7.59e5 | inactive
CG9706 (GeneID 39876) | DRSC39822 | -0.537 | 4.59e5 | 4.22e5 | inactive

A run of entries taken from the entries so far:
target | amplicon | ATP z-score, duplicate mean | ATP luminescence, replicate 1 (RLU) | ATP luminescence, replicate 2 (RLU) | Outcome
CG33310 (GeneID 2768910) | DRSC01897 | -0.366 | 6.84e5 | 6.90e5 | inactive
CG33310 (GeneID 2768910) | DRSC24914 | 0.635 | 9.13e5 | 8.86e5 | inactive
CG1317 (GeneID 38300) | DRSC08305 | -1.17 | 5.39e5 | 6.75e5 | inactive
CG1317 (GeneID 38300) | DRSC39565 | -0.372 | 3.87e5 | 4.95e5 | inactive
CG33298 (GeneID 2768929) | DRSC02210 | -0.117 | 7.21e5 | 7.07e5 | inactive
CG33298 (GeneID 2768929) | DRSC02672 | 0.16 | 4.69e5 | 5.13e5 | inactive
klar (GeneID 38067) | DRSC22393 | -0.31 | 6.68e5 | 9.56e5 | inactive
iav (GeneID 31621) | DRSC25119 | -1.72 | 5.34e5 | 6.89e5 | active
iav (GeneID 31621) | DRSC39553 | -1.21 | 3.70e5 | 3.96e5 | inactive
Gr58c (GeneID 37501) | DRSC04136 | 0.364 | 7.44e5 | 7.85e5 | inactive
